For two molecules, binding results are on record in article PMC9097636, “FOXO transcription factors differ in their dynamics and intra/intermolecular interactions” (Current Research in Structural Biology, 2022).

Amino acid sequences for entries named in this document (tags omitted). Residues count along the entry.
UniProt Q12778, residues 143-270: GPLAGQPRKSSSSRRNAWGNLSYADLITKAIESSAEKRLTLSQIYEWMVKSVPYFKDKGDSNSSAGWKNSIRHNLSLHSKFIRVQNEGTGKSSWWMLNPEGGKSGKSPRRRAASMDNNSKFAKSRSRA

These are yes or no findings as the source states them, for the method shown. Some results given as binding are weak or reduced against the parent protein; the word gives no strength.

Holding throughout (experiment): NMR titration; 1H,15N HSQC of 50 uM 15N-labelled FH domain, unlabelled CR3 added in trans (25 uM or 50 uM); 50 mM NaH2PO4/Na2HPO4 pH 6.5, 0.04% NaN3, 5 mM DTT; 25 C; read-out chemical shift perturbations and line broadening; both purified
In assay [1] the target is FOXO6 forkhead (FH) domain, amino acids 71 to 191 (human) (UniProt A8MYZ6).
The target in assay [2] is FOXO1 forkhead (FH) domain, amino acids 143 to 270 (human) (UniProt Q12778).
Assay [3] concerns the target FOXO3 forkhead (FH) domain, amino acids 141 to 260 (human) (UniProt O43524).

B1: FOXO3 conserved region 3 (CR3, transactivation domain), amino acids 593 to 646 (domain or fragment, UniProt O43524 593-646)
chain: YSTSANLPVMGHEKFPSDLDLDMFNGSLECDMESIIRSELMDADGLDFNFDSLI
B1: the binding result in assay [1], in assay [2] and in assay [3] was “binds weakly” throughout.

B2: FOXO6 conserved region 3 (CR3, transactivation domain), amino acids 418 to 472 (domain or fragment, human, UniProt A8MYZ6 418-472, looked up)
chain: YAAAAAGPLGAAPDRFPADLDLDMFSGSLECDVESIILNDFMDSDEMDFNFDSAL
notes: human FOXO6, Uniprot A8MYZ6, amino acids 418 to 472, CR3; Unlabelled in the titrations; also called FOXO6^CR3; CR3 of FOXO6; source: E. coli BL21-DE3 Star, lysed in 6 M urea, purified (Ni-NTA, TEV cleavage, second Ni-NTA, SEC)
With B2, the binding entry in assay [3] is “binds weakly”.
